Results as given in the supplement of paper PMC12067093, “Discovery and optimisation of a covalent ligand for TRIM25 and its application to targeted protein ubiquitination” (Chemical Science, 2025).
The list shows a part of the results.

Amino acid sequences for entries named in this document (tags omitted). A change or cut given only in a name is not applied to a line headed by its entry.
UniProt Q8NI60: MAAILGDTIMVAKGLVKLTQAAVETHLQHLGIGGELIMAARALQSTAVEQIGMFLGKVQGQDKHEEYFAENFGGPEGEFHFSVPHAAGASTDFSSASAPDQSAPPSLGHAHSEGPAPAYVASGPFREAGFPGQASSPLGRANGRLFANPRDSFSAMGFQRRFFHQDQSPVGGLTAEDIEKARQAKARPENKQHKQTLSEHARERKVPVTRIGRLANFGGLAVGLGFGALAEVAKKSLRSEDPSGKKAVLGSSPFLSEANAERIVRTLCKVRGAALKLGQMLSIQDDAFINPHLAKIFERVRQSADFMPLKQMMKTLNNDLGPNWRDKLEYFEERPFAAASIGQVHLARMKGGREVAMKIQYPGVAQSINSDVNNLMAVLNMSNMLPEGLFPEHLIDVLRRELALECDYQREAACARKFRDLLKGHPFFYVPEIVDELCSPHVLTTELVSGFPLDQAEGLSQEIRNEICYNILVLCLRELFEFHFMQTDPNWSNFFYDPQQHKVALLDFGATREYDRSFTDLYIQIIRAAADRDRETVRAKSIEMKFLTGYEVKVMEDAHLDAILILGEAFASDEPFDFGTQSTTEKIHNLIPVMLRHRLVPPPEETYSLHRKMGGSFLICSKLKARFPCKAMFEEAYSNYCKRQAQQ
UniProt Q9Y678: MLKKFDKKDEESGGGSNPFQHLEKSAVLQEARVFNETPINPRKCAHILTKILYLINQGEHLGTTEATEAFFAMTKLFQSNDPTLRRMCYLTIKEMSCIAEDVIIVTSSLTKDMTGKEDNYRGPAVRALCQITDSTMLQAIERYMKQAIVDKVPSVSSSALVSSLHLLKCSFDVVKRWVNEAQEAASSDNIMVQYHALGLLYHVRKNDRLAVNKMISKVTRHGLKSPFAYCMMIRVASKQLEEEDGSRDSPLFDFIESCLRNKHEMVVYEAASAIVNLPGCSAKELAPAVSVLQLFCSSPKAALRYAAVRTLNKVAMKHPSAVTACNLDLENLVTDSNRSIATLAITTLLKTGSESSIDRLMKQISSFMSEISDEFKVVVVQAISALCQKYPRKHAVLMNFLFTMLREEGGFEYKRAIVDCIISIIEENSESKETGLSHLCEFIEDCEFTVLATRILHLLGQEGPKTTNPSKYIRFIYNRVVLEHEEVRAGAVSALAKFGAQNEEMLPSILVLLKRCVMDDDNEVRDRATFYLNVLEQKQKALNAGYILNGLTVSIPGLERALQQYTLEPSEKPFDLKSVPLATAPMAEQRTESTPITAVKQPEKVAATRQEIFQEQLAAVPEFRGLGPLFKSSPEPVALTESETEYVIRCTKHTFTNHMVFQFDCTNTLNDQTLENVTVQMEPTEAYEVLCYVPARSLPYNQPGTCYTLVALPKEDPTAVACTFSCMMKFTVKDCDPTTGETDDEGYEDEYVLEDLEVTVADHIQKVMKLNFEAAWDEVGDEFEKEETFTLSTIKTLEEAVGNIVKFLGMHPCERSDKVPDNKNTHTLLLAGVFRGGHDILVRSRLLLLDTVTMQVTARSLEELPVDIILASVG
UniProt P53618: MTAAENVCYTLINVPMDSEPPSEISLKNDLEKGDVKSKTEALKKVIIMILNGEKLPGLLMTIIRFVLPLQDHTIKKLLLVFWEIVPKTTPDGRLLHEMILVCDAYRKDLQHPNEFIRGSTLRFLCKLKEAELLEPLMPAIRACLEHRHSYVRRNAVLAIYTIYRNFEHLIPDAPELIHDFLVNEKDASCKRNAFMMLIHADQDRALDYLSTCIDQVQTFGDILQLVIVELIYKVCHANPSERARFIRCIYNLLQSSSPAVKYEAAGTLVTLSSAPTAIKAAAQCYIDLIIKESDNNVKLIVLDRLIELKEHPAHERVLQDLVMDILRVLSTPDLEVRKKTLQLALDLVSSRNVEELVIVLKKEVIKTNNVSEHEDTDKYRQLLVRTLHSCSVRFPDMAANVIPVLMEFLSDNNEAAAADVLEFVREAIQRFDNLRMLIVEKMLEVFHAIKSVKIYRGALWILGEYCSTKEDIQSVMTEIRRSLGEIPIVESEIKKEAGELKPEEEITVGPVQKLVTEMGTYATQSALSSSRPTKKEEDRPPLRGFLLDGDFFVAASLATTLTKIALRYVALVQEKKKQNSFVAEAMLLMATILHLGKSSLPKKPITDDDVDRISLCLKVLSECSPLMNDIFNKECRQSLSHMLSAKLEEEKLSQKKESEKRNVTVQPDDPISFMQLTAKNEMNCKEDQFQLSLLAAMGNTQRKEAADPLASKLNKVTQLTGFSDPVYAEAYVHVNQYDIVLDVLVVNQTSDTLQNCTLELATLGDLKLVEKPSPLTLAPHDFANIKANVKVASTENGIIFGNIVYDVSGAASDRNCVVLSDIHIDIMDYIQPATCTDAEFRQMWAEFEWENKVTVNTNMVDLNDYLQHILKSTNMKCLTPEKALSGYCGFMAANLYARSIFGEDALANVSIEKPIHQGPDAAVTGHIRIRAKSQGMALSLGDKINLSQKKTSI
UniProt P53621: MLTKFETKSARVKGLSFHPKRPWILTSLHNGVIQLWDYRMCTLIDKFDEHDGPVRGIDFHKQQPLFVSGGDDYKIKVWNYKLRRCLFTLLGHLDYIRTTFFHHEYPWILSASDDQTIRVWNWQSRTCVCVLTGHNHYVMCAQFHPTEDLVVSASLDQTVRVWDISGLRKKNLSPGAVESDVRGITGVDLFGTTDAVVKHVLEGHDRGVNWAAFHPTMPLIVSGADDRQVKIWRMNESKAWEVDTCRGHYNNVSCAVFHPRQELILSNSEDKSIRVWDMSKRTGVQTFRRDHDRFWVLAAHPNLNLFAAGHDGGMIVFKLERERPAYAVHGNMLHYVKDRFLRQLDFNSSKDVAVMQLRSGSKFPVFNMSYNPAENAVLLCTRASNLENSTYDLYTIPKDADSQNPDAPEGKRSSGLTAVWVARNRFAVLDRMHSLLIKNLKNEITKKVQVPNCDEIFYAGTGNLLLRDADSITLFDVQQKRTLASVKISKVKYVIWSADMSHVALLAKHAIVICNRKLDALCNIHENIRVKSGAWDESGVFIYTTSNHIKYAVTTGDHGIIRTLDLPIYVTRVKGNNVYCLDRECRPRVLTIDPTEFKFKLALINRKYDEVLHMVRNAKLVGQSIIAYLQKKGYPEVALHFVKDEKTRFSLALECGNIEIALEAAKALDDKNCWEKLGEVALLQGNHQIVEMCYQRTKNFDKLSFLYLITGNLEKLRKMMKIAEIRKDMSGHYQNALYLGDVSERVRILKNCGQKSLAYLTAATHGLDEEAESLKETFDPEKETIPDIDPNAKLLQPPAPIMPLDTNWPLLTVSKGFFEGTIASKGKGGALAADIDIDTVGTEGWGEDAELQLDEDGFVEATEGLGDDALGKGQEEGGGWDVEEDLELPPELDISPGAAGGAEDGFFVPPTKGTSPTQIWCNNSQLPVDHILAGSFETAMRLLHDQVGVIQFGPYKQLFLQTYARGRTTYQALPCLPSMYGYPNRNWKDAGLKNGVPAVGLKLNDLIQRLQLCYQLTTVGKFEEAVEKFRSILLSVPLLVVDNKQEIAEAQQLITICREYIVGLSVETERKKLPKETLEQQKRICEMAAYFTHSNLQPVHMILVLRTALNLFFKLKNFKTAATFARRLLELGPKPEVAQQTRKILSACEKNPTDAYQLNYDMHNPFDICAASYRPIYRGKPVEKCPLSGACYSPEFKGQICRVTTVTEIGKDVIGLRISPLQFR
UniProt Q9H9A5, whole entry, looked up: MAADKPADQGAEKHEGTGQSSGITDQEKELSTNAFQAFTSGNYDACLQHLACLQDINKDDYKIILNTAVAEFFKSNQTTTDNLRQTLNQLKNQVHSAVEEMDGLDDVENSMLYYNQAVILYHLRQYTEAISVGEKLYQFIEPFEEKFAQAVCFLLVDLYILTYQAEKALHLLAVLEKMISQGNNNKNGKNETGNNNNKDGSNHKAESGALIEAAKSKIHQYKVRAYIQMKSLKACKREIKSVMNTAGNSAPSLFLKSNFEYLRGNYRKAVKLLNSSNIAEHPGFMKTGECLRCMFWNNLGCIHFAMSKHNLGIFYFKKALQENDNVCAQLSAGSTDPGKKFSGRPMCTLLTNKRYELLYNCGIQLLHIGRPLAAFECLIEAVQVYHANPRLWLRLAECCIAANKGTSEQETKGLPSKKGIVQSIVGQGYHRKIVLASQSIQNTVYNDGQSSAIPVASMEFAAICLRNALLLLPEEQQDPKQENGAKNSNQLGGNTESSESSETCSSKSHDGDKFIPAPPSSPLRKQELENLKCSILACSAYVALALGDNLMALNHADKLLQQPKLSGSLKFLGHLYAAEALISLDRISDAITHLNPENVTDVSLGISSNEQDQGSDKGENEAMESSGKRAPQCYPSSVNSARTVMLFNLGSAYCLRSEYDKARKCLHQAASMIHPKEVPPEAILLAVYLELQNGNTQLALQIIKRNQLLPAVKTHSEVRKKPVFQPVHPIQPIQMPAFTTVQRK
UniProt Q9UIV1, whole entry, looked up: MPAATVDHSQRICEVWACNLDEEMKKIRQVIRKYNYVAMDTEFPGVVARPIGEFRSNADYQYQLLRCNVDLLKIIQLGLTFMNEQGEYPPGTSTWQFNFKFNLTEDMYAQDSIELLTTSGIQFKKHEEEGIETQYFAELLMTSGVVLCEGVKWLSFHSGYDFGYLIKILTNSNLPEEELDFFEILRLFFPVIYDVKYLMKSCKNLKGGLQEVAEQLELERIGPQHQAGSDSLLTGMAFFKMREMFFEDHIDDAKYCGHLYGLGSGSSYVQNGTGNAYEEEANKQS
UniProt Q96BR5: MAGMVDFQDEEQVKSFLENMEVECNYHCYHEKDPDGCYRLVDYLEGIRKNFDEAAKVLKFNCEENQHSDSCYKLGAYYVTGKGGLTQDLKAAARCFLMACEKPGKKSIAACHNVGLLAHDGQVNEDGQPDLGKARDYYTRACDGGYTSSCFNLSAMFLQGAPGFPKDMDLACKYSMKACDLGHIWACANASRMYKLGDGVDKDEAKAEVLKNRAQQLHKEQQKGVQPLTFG
UniProt O95628: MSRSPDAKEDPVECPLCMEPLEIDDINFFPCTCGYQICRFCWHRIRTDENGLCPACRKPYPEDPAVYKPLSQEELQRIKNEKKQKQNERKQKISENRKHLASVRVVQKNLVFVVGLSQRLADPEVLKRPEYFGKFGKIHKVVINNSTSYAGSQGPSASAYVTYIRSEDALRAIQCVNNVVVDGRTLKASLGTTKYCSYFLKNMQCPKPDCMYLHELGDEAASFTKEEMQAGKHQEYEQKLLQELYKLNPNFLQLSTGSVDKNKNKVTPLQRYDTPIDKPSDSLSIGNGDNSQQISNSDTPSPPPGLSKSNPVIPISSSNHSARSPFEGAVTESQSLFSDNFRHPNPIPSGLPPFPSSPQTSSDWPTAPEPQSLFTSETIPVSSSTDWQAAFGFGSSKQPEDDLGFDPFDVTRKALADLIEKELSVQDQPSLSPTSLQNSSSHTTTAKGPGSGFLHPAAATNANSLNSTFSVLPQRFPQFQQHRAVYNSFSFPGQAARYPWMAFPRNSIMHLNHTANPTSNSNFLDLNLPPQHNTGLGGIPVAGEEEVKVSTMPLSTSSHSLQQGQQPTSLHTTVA
UniProt P35606: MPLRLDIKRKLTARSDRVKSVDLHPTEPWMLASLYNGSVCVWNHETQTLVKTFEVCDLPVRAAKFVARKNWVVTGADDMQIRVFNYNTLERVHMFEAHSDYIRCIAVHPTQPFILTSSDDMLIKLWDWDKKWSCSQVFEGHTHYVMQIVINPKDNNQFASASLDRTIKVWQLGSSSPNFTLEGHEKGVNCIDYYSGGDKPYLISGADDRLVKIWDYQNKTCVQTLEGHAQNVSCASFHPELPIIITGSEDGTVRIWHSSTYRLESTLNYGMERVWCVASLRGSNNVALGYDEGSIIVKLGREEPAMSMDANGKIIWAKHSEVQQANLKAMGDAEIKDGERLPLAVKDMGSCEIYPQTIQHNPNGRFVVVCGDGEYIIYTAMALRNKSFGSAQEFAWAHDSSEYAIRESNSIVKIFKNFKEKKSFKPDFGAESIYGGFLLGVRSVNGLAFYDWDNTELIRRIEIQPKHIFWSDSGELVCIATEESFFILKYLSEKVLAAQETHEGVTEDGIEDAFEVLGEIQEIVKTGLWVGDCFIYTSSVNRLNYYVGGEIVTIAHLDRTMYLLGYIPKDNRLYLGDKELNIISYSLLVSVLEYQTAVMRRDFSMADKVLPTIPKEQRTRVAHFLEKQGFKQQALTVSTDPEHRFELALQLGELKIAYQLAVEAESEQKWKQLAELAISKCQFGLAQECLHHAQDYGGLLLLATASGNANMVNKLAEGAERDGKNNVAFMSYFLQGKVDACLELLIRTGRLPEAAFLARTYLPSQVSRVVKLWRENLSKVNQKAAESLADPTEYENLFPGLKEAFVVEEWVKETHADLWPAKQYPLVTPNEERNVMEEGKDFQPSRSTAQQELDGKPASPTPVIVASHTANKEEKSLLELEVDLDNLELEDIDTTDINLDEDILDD

Compound: Cc1cc(ccc1-c1ccccc1)C(=O)N1CCCN(CC1)C(=O)CCl [compound 10]
Test: probe-labelled cysteine peptide fold change vs DMSO (competition) (log2 fold change); higher = less target engagement (more negative = stronger competition)
Conditions: THP-1, incubation time: 4 h
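Note: competitive profiling in live THP-1 cells: cysteine peptides tagged with an iodoacetamide desthiobiotin (IA-DTB) probe, intensity after compound treatment relative to DMSO-treated cells.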

## COQ8A_Q8NI60_620_KMGGSFLICSK (UniProt Q8NI60)
10 µM
  probe-labelled cysteine peptide fold change: -0.389
50 µM
  probe-labelled cysteine peptide fold change: -0.606

## CNDP2_Q96KP4_161_FCLEGMEESGSEGLDELIFAR (UniProt Q96KP4)
10 µM
  probe-labelled cysteine peptide fold change: 0.0344
50 µM
  probe-labelled cysteine peptide fold change: -0.213

## COPS4_Q9BT78_255_CQQLAAYGILEK (UniProt Q9BT78)
10 µM
  probe-labelled cysteine peptide fold change: -0.0014
50 µM
  probe-labelled cysteine peptide fold change: 0.0431

## COPG1_Q9Y678_722+726_EDPTAVACTFSCMMK (UniProt Q9Y678)
10 µM
  probe-labelled cysteine peptide fold change: -0.00753
50 µM
  probe-labelled cysteine peptide fold change: -0.457

## COPB1_P53618_888_ALSGYCGFMAANLYAR (UniProt P53618)
10 µM
  probe-labelled cysteine peptide fold change: 0.0772
50 µM
  probe-labelled cysteine peptide fold change: -0.08

## COPA_P53621_585_GNNVYCLDRECRPR (UniProt P53621)
10 µM
  probe-labelled cysteine peptide fold change: -0.102
50 µM
  probe-labelled cysteine peptide fold change: -0.299

## CNOT10_Q9H9A5_399_LAECCIAANK (UniProt Q9H9A5)
10 µM
  probe-labelled cysteine peptide fold change: -0.0283
50 µM
  probe-labelled cysteine peptide fold change: 0.104

## COQ8A_Q8NI60_620_MGGSFLICSK (UniProt Q8NI60)
10 µM
  probe-labelled cysteine peptide fold change: 0.0354
50 µM
  probe-labelled cysteine peptide fold change: -0.0318

## COPA_P53621_522_LDALCNIHENIR (UniProt P53621)
10 µM
  probe-labelled cysteine peptide fold change: -0.0242
50 µM
  probe-labelled cysteine peptide fold change: 0.218

## CNOT7_Q9UIV1_13_ICEVWACNLDEEMKK (UniProt Q9UIV1)
10 µM
  probe-labelled cysteine peptide fold change: 0.177
50 µM
  probe-labelled cysteine peptide fold change: -0.3

## COPG1_Q9Y678_516_CVMDDDNEVR (UniProt Q9Y678)
10 µM
  probe-labelled cysteine peptide fold change: 0.118
50 µM
  probe-labelled cysteine peptide fold change: 0.338

## COA7_Q96BR5_24_SFLENMEVECNYHCYHEK (UniProt Q96BR5)
10 µM
  probe-labelled cysteine peptide fold change: -0.00216
50 µM
  probe-labelled cysteine peptide fold change: -0.0957

## COPA_P53621_41_MCTLIDK (UniProt P53621)
10 µM
  probe-labelled cysteine peptide fold change: 0.118
50 µM
  probe-labelled cysteine peptide fold change: 0.772

## CNOT4_O95628_56_TDENGLCPACR (UniProt O95628)
10 µM
  probe-labelled cysteine peptide fold change: 0.168
50 µM
  probe-labelled cysteine peptide fold change: 0.246

## COPB2_P35606_104_CIAVHPTQPFILTSSDDMLIK (UniProt P35606)
10 µM
  probe-labelled cysteine peptide fold change: 0.397
50 µM
  probe-labelled cysteine peptide fold change: 0.27
